Test results published in patent US10450346B2, “Immunotherapy against several tumors of the blood, in particular chronic lymphoid leukemia (CLL)” (Immatics biotechnologies GmbH, priority 2014, dated 2019).

What was measured:
[1] = system: primary CLL samples (PBMC from CLL patients), HLA class I ligands; experiment: HLA class I ligandome analysis by LC-MS/MS (frequency of HLA restricted presentation); set-up: species or system human; conditions: for Number of positive CLLs: CLL patient HLA class I ligandomes (n = 30); for Number of positive CLLs (frequency [%]): source protein (LiTAA) representation in CLL patient HLA class I ligandomes (n = 30)
[2] = system: primary CLL samples (PBMC from CLL patients), HLA class II ligands; experiment: HLA class II ligandome analysis by LC-MS/MS (frequency of HLA restricted presentation); set-up: species or system human; conditions: CLL patients (n=20), source protein
[3] = system: HLA class II (HLA-DR) on CD5+CD19+ CLL cells; experiment: Quantification of HLA class II surface expression (QIFIKIT flow cytometry) under therapy; type: in vivo, human
[4] = system: HLA class I ligandome of CLL patients; experiment: Longitudinal HLA class I ligandome analysis over the course of therapy (label-free quantification); type: in vivo, human

Substance	Number of positive CLLs [1]	Number of positive CLLs (frequency [%]) [1]	representation frequency in HLA class II ligandomes [2]	mean HLA class II surface expression ([3]; Rt24h: 24 h after rituximab, 4 patients)	mean HLA class II surface expression ([3]; At7d: 7 d after alemtuzumab, 1 patient)	detectable LiTAPs showing significant changes in abundance ([4]; post versus pre therapy: rituximab/bendamustin 48 h/24 h, alemtuzumab day 7, ofatumumab 24 h)	HLA class I ligands with differential presentation ([4]; ≥2-fold change, p≤0.05, post versus pre therapy, single patients)
UDP-Gal:betaGlcNAc beta 1,4-galactosyltransferase, polypeptide 1 [B4GALT1]	8	26.7%	30.0%	–	–	–	–
major histocompatibility complex, class II, DM alpha [HLA-DMA]	6	20.0%	20%	–	–	–	–
rituximab	–	–	–	27,500	–	–	–
alemtuzumab	–	–	–	–	55,500	12.5%	33.6%
